# Data as given in the RNAGym collection of RNA variant scans (doi:10.1126/science.aae0568).
# Variants at the background level are over-represented here.
# B1: tRNA (parent)
# chain: GUUCCGUUGGCGUAAUGGUAACGCGUCUCCCUCCUAAGGAGAAGACUGCGGGUUCGAGUCCCGUACGGAACG
# Variants of: B1
# Experiment: yeast fitness relative to wild type (ratio to wild type); higher = fitter; tRNA-Arg(CCU), competitive growth, 37 C, YPD
# In short: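 A pool of Saccharomyces cerevisiae strains, each with a tRNA-Arg(CCU) gene variant at the native genomic locus, was competed in YPD at 37°C for 24 hours across six parallel replicates. The variants had been chemically synthesised at a 3% per-site mutation rate over 69 sites, and gene amplicons before and after competition were read by 100-nucleotide paired-end sequencing. Darwinian fitness relative to wild type rested on changes in genotype frequencies. Genotypes required ≥ 100 starting reads, and estimates < 0.5 were set to 0.5.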
row,Variant,yeast fitness
1,GUUCCGUUGGCGUAAUGGUCACGCGUCUCCCUACUAAGGGGAAGACUGCGGGUUCGAGUCCCGUACGGAACG,≤ 0.5
2,GUUGCGUUGGCGUAAUGGUAACGCGUCUCCUUCCUGAGGAGAAGUCUGCGGGUUCGAGUCCCGUACGGAACG,≤ 0.5
3,GUUCCGUUGGCGUAAUGGUAACGCGUCUCCCUUCUAAGGAGAAGACUGCGGGUUCGAGUCCCGUAUGGAACG,0.651
4,GUUCCGUUGGCGUAAUGGUAACGCGCCUCCCUCCUAAGGAGAAGACUGCGGACUCGAGUCCCCUACGGAACG,≤ 0.5
5,GUUCCGUUGGCGUGAUGGUAACGGGUCUCCCUCCUAAGGAGAAGACUGCGGGUUCGAGUCCCGUACGGCACG,≤ 0.5
6,GCUCCGUUGGCGUAAUGGUAACGCGUCUCUCUCGUAACGAGAAGACUGCGGGUUCGAGUCCCGUCCGGAACG,≤ 0.5
7,GUUCCGUUGGCGUAAUGGCAACGCGUCUCGCUCCUAGGGAGAUGACUGCGGGUUCGAGUCCCGUACGGAACG,≤ 0.5
8,GUUCCGUUGGCGUAAAGGUAAUGCGCCUCCCUCCUAAGGAGAAGACUGCGGGUUCGAGUCCCGUACAGAACG,≤ 0.5
9,GUUCCGUCGGCGUAAUGGUAACGCCUCUCCCUCCUAAAGAGAAGACUGCGGGUUCGAAUUCUGUACGGAACG,≤ 0.5
10,GUUCCGUUGGCGUAAUGGUAACGCGUCUCCCUCCUAAGGAGAUGUCUGCGGGUUCGCGUCCCGUACGGAACG,≤ 0.5
11,GUUCCGUUGGCGUAAUGGUUCCGCGUAUCCCUCCUAAGGAAAAGACUGCGGGUUCGAGUCCCGUACGGAACG,≤ 0.5
12,GUUCCGGUGGCGUAAUGGUACCGCGUCUCCCUCUUAAGGAGAAGACUGCGGGUUCGAGUCCCGUACGGAACG,≤ 0.5
13,GUUCCGUUGGCGUAAUGGUAACGCGUCUCGCUCCUAAGGACAAGACUGCGGGUUCGAGUCCAGUACGGAACG,≤ 0.5
14,GUUCCGGUGGCGUAAUGGUAACGCGUCUCCCUCCGAAGGAGAAGACUGCGGGUUCGAGUCCCGUACGGAACG,0.536
15,GUUCCGUUGGCGUAAUGGUAACGCGUCUCCUUCUUAAGGAGAAGACUGUGGGUUCGAGGCCCGUACGGAACG,≤ 0.5
16,GUUCCGUUGGCGCAAUGGUAACGCGUCUCCCUCCUAAGGAGAAGACCGCGGGUUCGAGUCCUGUAUGGAACG,≤ 0.5
17,GUUCCGUUGGCGUAAUGGUAACGCGUCUUCCUCCUAUGCAGAAGACUGCGGGUUCGAGUCCCGUACGGAACG,≤ 0.5
18,GUUCCGUUCGUGUAAUGGUAACGCGUCUCCCUCCUCAGGAGAAGACUGCGGGUUCGAGUCCCGUACGGAACG,≤ 0.5
19,GUUGCGUUGGCGUGAUGGUAACGCGUCUCCCUCCUAAAGAGAAGACUGCGGGUUCCAGUCCCGUACGGAGCG,≤ 0.5

row,Variant,yeast fitness
1,GUUCUGUUGGCGUAAUGGUAACGCGUCUCCUUCCUACGGAGAUGACUGCCGGUUCGGGUCCCGUACGGAACG,≤ 0.5
2,GUUCCGUUGGCGUAAUGGUAACGCGUCUCCCUCCUAAGGAGAAGACAGCGGCUUCGAGUCCCGUACGGAACG,0.581
3,GUUCCGUUGGCGUAAUGGUGACGCGUCUACAUCCUAAGGCGAAAACUGCGGGUUCGAGACCCGUACGGAACG,≤ 0.5
4,GUUCCGUUAGCGUAAUGGUAACGUGUCUCCCUCCUAAGGUGAAGACUGCGGGUUCGAGUCCCGUACGCAACG,≤ 0.5
5,GUUUCGUUGGCGUAAUGGUAACGCGUAUCCUUCCUAAGGAGAAGACUGCGGGUUCGAGUGCCGUACGGAACG,≤ 0.5
6,GUUCCGUUGCCGUAAUGGUAAGGCGUCUCCCUUCUCAGGUGAAGACUGCGGGUUCGAGUCCCGUACGGAACG,≤ 0.5
7,GUUCCGUUGGCGUCAUGGUACCGUGUCUCCCUCCUUAGGAGAUGACUGCGGGUUCGAGUCCCGUACGGAACG,≤ 0.5
8,GUUCCGUUGGCGUAAUGGUAACGAGUCUCCCUCCUAAGGAGAAGACUGCGGCUUCGAGUCCCAUACGGAACG,≤ 0.5
9,GUUCCGUUGGCGUAAUGGUAACGCGACUCCCUCCUAAGGAGAAGACUGCGGGUACGAGUCCCGUACGGAACG,0.589
10,GUUCCGUUGGCGUAAUAGUAACGCGUCUCCCUCCUACGGAGAAGACUGCGGGUUUGAGUCUCGUACGGAACG,≤ 0.5
11,GUUCCGUUGGCGUAGUGGUACCGGGUCUCCCUCCUAAGGUGAAGACCGCGGGUUCGAGACCGGUACGGACCG,≤ 0.5
12,GUUCCGUUGGCGUUAUGCUAACGCGUCUCCCUCCUAAGGAGAAGACUGCGGGUUCGAGUCCCGUACGGAGCG,0.715
13,GUUCCAUUGGCGUAAUGGUAACGCGACUCCCUCCUAAGGAGAAGACUCCGGGUUCGAGUCCCGUAUGGUACG,≤ 0.5
14,GUUCCGUUGGCGUAAUGGUAAGGCGUCUCCCUCGAUAGGAGAAGACUCCGGGUUGGAGUCCCGUACGGUACG,≤ 0.5
15,GUUCCGUUGGCGUAAUGGUAACGCGUCUCCCGCCGCAGGAGAAGACUGCGGGUUCGAGUCGCGUACGGAACG,≤ 0.5
16,GUUCCGUUGGCGUAAUGGUAACGCGUCUCCCUCUUAAAGAGUAGACUGCGGGUUCGAGUCCCGUACGGAACG,≤ 0.5
17,GUUCCGUUGCCGUAAUGGUAACGCGUCUCCCUCGUAAGGAGAAGACUGCGGGUUCGAGUCCCGUACAGAACG,≤ 0.5
18,GUUCCGUUGGCGUAGUGGUAACGCGUCUCCAUCCUAAGGACAAGACUGCGGGUUCGAGUCCCGUACGGAACG,≤ 0.5
